Data as given in PMC8671138.
These are yes or no findings as the source states them, for the method shown. Sequences can lack the tags named with a protein.

Molecular target: CD47 on WT Jurkat cells (human (endogenous in Jurkat)), Q08722
Assay: flow cytometry on cells; WT Jurkat cells stained with SIRPα-Fc or SIRPγ-Fc, FACS; conditions not told (mentioned in the discussion only); only the binder purified
Conditions: remark: other sources report otherwise

binding: no binding
B1: SIRPγ-Fc, Q9P1W8 29-360 (Fc fusion)
chain: EEELQMIQPEKLLLVTVGKTATLHCTVTSLLPVGPVLWFRGVGPGRELIYNQKEGHFPRVTTVSDLTKRNNMDFSIRISSITPADVGTYYCVKFRKGSPENVEFKSGPGTEMALGAKPSAPVVLGPAARTTPEHTVSFTCESHGFSPRDITLKWFKNGNELSDFQTNVDPTGQSVAYSIRSTARVVLDPWDVRSQVICEVAHVTLQGDPLRGTANLSEAIRVPPTLEVTQQPMRVGNQVNVTCQVRKFYPQSLQLTWSENGNVCQRETASTLTENKDGTYNWTSWFLVNISDQRDDVVLTCQVKHDGQLAVSKRLALEVTVHQKDQSSDATP
